# According to the supplement of paper PMC10849652:
# Protein sequences, listed by entry. Tags and fused reporters are not part of them. Lines headed by an entry give the natural chain unless they say otherwise; changes in a name come on top.
# UniProt Q5U649: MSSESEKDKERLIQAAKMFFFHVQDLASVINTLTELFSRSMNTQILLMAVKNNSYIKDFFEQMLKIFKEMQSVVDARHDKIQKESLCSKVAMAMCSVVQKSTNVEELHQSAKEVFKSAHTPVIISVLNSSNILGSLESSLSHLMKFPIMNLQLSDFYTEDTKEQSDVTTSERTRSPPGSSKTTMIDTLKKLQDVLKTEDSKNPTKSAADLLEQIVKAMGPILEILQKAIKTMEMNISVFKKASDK
# UniProt Q99622: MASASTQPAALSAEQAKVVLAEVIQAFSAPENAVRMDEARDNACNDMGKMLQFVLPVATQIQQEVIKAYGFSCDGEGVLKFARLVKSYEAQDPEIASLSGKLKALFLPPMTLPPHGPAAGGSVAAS
# UniProt Q9BSU1: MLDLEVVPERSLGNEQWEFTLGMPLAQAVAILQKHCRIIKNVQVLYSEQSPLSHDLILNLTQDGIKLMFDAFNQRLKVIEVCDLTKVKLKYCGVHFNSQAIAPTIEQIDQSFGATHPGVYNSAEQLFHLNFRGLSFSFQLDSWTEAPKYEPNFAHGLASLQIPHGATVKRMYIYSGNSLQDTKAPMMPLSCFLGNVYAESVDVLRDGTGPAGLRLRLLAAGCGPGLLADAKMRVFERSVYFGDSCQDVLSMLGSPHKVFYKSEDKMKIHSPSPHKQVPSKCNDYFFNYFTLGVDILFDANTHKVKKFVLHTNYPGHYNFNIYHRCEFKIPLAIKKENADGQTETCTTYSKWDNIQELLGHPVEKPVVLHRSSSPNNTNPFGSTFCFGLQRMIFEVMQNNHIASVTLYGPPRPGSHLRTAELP
# UniProt Q86VG3: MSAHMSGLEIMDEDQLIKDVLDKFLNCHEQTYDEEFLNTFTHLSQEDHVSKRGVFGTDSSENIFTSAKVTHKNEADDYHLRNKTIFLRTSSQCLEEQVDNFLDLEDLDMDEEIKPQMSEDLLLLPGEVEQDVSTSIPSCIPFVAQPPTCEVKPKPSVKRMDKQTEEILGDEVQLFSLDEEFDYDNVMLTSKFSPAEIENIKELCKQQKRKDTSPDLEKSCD
# UniProt Q5SQH8: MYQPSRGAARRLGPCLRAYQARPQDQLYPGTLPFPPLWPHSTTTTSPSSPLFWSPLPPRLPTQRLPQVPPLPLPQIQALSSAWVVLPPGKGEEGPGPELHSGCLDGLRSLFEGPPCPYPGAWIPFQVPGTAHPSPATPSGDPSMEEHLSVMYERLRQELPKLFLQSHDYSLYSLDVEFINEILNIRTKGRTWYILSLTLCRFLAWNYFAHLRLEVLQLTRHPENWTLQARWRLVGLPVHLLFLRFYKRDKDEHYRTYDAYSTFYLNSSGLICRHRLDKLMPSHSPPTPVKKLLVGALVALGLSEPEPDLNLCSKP
# UniProt Q9BTV7: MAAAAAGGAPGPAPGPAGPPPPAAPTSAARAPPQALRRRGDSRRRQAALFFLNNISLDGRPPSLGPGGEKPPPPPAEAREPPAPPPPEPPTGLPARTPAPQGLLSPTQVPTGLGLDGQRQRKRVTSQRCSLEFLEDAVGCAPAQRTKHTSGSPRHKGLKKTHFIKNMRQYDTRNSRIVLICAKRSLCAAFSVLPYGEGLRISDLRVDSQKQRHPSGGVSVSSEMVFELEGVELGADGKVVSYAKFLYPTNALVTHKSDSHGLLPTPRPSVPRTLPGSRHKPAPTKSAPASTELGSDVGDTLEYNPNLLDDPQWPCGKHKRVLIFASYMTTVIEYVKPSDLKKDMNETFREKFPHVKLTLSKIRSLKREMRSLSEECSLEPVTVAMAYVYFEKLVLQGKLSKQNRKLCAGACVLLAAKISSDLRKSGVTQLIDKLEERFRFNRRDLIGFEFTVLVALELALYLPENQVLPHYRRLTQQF
# UniProt Q9BX69: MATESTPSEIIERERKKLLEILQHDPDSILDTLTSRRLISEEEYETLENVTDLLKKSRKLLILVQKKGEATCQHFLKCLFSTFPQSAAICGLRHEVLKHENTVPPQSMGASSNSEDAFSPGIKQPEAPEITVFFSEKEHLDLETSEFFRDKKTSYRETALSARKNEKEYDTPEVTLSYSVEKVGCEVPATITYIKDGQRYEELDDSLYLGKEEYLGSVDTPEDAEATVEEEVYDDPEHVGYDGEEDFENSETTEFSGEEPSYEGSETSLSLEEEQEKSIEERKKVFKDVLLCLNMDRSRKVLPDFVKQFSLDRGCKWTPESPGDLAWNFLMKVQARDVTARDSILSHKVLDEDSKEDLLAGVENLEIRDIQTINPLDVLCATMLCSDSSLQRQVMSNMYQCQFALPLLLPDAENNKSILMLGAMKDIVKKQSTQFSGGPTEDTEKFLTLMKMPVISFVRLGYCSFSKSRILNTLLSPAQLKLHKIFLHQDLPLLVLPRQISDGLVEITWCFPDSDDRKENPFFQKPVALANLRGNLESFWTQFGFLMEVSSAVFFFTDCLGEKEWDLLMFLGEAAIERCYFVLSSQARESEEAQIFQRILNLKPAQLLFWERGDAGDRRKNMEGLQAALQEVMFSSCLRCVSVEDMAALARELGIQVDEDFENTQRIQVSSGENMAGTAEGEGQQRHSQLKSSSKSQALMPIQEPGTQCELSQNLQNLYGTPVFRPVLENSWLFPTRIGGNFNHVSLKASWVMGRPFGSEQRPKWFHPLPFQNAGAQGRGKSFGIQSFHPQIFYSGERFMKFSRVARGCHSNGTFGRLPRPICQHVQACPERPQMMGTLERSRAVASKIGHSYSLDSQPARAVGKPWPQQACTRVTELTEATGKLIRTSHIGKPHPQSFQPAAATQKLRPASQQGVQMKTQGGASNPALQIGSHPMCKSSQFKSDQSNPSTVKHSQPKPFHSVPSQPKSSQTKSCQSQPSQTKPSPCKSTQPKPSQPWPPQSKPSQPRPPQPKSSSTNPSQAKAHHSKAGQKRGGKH
# UniProt Q9P1Y5: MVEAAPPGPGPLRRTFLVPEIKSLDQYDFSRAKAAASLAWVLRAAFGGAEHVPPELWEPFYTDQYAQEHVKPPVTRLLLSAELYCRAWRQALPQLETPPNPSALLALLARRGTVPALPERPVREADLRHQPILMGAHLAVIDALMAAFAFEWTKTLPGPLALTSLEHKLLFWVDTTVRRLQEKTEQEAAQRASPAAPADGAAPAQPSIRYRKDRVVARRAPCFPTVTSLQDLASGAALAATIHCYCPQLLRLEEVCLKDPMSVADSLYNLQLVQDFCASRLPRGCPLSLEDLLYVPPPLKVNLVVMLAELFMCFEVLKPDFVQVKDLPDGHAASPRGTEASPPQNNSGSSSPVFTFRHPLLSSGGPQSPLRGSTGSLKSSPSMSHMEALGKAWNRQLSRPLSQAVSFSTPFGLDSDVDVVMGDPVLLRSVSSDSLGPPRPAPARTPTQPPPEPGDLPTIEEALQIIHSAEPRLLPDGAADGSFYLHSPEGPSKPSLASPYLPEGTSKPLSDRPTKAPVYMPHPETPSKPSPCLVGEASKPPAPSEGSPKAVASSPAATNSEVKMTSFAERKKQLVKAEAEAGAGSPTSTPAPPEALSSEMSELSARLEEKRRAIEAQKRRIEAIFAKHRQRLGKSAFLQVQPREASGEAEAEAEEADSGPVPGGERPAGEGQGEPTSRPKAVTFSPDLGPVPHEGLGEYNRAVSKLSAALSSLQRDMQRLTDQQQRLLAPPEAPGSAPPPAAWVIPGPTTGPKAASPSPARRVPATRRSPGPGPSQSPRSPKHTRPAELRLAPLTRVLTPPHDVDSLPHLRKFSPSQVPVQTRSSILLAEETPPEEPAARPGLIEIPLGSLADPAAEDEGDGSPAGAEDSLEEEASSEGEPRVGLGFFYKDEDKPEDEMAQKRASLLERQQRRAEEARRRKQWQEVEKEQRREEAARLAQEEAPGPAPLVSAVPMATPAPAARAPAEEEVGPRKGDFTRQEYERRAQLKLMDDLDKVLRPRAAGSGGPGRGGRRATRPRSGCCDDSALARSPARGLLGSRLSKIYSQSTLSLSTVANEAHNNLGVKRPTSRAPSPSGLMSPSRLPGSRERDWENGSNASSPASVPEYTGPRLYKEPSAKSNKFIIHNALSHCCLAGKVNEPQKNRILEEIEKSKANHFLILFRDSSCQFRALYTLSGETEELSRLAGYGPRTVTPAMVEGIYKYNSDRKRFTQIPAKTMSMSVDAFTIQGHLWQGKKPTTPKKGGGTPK
# UniProt Q96MH7: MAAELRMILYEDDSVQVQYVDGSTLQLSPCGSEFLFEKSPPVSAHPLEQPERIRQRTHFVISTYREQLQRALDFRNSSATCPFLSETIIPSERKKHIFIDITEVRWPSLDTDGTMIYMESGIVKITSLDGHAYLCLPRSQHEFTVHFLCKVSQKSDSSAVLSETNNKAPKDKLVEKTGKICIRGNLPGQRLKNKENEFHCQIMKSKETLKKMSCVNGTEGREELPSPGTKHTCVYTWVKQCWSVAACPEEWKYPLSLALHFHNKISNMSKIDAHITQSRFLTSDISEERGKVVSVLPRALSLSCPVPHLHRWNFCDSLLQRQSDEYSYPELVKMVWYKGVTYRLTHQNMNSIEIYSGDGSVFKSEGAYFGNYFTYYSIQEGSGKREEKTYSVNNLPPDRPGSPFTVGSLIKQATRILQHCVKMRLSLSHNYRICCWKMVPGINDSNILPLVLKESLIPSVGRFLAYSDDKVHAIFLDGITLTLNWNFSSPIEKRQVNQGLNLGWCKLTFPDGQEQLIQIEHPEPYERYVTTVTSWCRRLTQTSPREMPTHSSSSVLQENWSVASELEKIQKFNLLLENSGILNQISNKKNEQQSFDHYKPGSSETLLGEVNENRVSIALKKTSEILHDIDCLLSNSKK
# UniProt Q96HA4: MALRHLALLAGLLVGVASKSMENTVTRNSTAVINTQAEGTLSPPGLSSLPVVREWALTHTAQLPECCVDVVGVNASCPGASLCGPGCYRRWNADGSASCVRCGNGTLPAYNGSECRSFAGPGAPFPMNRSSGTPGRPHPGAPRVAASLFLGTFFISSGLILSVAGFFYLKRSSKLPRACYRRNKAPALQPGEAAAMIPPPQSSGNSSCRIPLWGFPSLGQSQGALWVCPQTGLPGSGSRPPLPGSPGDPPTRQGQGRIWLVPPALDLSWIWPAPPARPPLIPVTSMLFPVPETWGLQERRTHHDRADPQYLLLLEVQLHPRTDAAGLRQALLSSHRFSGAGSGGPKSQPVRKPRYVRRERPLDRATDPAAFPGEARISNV
# UniProt Q9NX04: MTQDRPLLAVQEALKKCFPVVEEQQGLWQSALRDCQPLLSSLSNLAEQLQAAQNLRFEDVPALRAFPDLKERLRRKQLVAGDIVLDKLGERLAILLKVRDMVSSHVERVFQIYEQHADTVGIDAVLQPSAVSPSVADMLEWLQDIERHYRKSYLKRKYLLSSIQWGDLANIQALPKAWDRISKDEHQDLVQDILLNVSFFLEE
# UniProt Q504U0: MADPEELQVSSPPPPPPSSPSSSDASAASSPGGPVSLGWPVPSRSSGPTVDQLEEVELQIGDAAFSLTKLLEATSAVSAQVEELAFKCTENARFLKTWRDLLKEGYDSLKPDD
# UniProt Q9NSK7: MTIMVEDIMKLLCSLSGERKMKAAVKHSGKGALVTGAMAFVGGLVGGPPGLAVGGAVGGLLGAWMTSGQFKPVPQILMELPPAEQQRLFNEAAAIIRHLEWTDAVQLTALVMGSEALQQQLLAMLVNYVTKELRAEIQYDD
# UniProt Q9NZP8: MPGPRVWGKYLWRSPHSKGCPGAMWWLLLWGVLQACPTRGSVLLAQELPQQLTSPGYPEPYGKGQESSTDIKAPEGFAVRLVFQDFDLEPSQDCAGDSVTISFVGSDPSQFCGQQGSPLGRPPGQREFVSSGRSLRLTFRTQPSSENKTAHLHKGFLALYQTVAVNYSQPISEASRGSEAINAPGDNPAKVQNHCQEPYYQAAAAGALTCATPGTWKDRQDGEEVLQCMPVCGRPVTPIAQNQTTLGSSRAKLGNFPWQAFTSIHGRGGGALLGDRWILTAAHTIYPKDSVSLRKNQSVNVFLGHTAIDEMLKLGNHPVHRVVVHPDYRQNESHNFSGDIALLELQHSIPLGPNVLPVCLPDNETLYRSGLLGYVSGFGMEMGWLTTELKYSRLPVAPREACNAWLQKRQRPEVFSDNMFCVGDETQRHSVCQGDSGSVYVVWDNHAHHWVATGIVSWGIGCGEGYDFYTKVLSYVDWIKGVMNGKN
# UniProt Q13137: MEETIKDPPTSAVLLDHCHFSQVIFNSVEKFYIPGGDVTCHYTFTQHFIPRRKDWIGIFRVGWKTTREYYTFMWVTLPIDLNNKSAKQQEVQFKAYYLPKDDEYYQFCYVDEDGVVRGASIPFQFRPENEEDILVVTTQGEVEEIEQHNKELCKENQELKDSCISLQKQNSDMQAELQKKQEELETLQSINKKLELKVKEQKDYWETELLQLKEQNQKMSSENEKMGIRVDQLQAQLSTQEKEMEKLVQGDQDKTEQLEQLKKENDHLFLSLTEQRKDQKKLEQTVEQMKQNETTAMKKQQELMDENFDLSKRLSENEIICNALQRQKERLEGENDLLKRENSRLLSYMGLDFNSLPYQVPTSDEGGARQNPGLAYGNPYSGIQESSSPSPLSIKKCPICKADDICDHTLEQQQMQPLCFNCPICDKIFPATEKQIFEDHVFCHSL
# This is one part of the list.
# Compound: CNC(=O)c1ccc(Nc2ncc(C(F)(F)F)c(NCc3nccnc3N(C)S(C)(=O)=O)n2)cc1 [defactinib]
# Experiment: log2 fold change, soluble protein after heating vs DMSO (PISA); higher = thermal stabilisation; K562 lysate, 10 uM; active = over 0.2 and 3.5 SD of the protein, either way, in both replicates (recomputed)
# In short: (§1)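 The values are log-two fold changes in thermal stability compared with solvent controls and come from duplicates. They were obtained by TMTpro 16plex LC-MS/MS, with channel sums equalised, on the supernatant after 21,000xg for 90 min. That supernatant came from crude K562 extract at 1 mg/mL protein treated with 10 μM compound for 30 min, heated for 3 min across 48°C-58°C, pooled and brought to 0.5% NP-40 at 4°C.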
row,Target,log2 fold change
1,C12orf60 (UniProt Q5U649),inactive: -0.07
2,C12orf57 (UniProt Q99622),inactive: 0.019
3,C6orf62 (UniProt Q9GZU0),inactive: -0.068
4,C19orf57 (UniProt Q0VDD7),inactive: 0.023
5,C16orf70 (UniProt Q9BSU1),inactive: 0.216
6,C11orf74 (UniProt Q86VG3),inactive: 0.02
7,CAPNS1 (UniProt K7ES78),inactive: 0.035
8,C6orf136 isoform 4 (UniProt Q5SQH8),inactive: 0.046
9,C1orf226 isoform 2 (UniProt A1L170),inactive: 0.006
10,CA2 (UniProt P00918),inactive: 0.124
11,CANX (UniProt D6RHJ3),inactive: 0.174
12,CABLES2 (UniProt Q9BTV7),inactive: 0.078
13,CARD6 (UniProt Q9BX69),inactive: 0.087
14,CAMSAP3 isoform 2 (UniProt Q9P1Y5),inactive: -0.073
15,C5orf34 (UniProt Q96MH7),inactive: -0.251

# Compound: CNc1nc(-c2ccc3c(N)n[nH]c3c2)cc(N2C[C@@H](C(=O)NC3CCCCC3)CC[C@H]2C)n1
# Experiment: as above
# In short: as §1
row,Target,log2 fold change
1,CAMKMT (UniProt Q7Z624),inactive: 0.003
2,C12orf60 (UniProt Q5U649),inactive: 0.022
3,C12orf57 (UniProt Q99622),inactive: -0.309
4,CAND1 (UniProt F5H6I6),inactive: 0.119
5,C6orf62 (UniProt Q9GZU0),inactive: -0.002
6,C17orf53 (UniProt Q8N3J3),inactive: 0.067
7,C19orf57 (UniProt Q0VDD7),inactive: 0.097
8,C16orf70 (UniProt Q9BSU1),inactive: -0.005
9,C11orf74 (UniProt Q86VG3),inactive: -0.137
10,C1orf159 isoform 4 (UniProt Q96HA4),inactive: -0.079
11,CAPNS1 (UniProt K7ES78),inactive: -0.068
12,C6orf136 isoform 4 (UniProt Q5SQH8),inactive: 0.259
13,C1orf109 (UniProt Q9NX04),inactive: 0.283
14,CA2 (UniProt P00918),inactive: 0.328
15,CARD6 (UniProt Q9BX69),inactive: 0.051
16,C4orf46 (UniProt Q504U0),inactive: -0.153
17,C19orf12 (UniProt Q9NSK7),inactive: -0.006
18,C5orf34 (UniProt Q96MH7),inactive: -0.056

# Compound: COC(=O)N[C@@H](C)CNc1nccc(-c2cn(C(C)C)nc2-c2cc(Cl)cc(NS(C)(=O)=O)c2F)n1 [encorafenib]
# Experiment: as above
# In short: as §1
row,Target,log2 fold change
1,CAND1 (UniProt F5H6I6),inactive: -0.072
2,C16orf70 (UniProt Q9BSU1),inactive: 0.04
3,CA1 (UniProt E5RIF9),inactive: -0.21
4,C11orf74 (UniProt Q86VG3),inactive: 0.073
5,C1orf159 isoform 4 (UniProt Q96HA4),inactive: -0.026
6,C6orf136 isoform 4 (UniProt Q5SQH8),inactive: -0.102
7,C1orf109 (UniProt Q9NX04),inactive: 0.043
8,C12orf4 (UniProt Q9NQ89),inactive: -0.06
9,C1RL (UniProt Q9NZP8),inactive: 0.114
10,CA2 (UniProt P00918),inactive: 0.06
11,CABLES2 (UniProt Q9BTV7),inactive: -0.019
12,C19orf12 (UniProt Q9NSK7),inactive: 0.036
13,C5orf34 (UniProt Q96MH7),inactive: 0.138

# Compound: COC(=O)[C@H](CCSC)NC(=O)C1=C(C=C(C=C1)NC[C@H](CS)N)C2=CC=CC=C2
# Experiment: as above
# In short: as §1
row,Target,log2 fold change
1,CAND1 (UniProt F5H6I6),inactive: 0.108
2,C16orf70 (UniProt Q9BSU1),inactive: -0.135
3,CA1 (UniProt E5RIF9),inactive: 0.09
4,C11orf74 (UniProt Q86VG3),inactive: -0.077
5,C1orf159 isoform 4 (UniProt Q96HA4),inactive: 0.105
6,C6orf136 isoform 4 (UniProt Q5SQH8),inactive: 0.035
7,C1orf109 (UniProt Q9NX04),inactive: -0.003
8,C12orf4 (UniProt Q9NQ89),inactive: 0.176
9,C1RL (UniProt Q9NZP8),inactive: -0.096
10,CA2 (UniProt P00918),inactive: -0.014
11,CABLES2 (UniProt Q9BTV7),inactive: 0.015
12,C19orf12 (UniProt Q9NSK7),inactive: -0.03
13,C5orf34 (UniProt Q96MH7),inactive: 0.074

# Compound: COc1cc(Nc2ncc3c(n2)-c2ccc(Cl)cc2C(c2c(F)cccc2OC)=NC3)ccc1C(=O)O [alisertib]
# Experiment: as above
# In short: as §1
row,Target,log2 fold change
1,CAMKMT (UniProt Q7Z624),inactive: -0.023
2,C12orf60 (UniProt Q5U649),inactive: -0.126
3,C12orf57 (UniProt Q99622),inactive: 0.11
4,CAND1 (UniProt F5H6I6),inactive: -0.273
5,C3AR1 (UniProt Q16581),inactive: 0.358
6,C19orf44 (UniProt Q9H6X5),inactive: 0.037
7,C1orf109 (UniProt Q9NX04),inactive: 0.018
8,CALCOCO2 isoform 5 (UniProt Q13137),inactive: -0.106
9,CALR (UniProt K7EJB9),inactive: 0.047
10,CA2 (UniProt P00918),inactive: -0.031
11,CANX (UniProt D6RHJ3),inactive: 0.068
12,CARD6 (UniProt Q9BX69),inactive: -0.004
13,C19orf12 (UniProt Q9NSK7),inactive: 0.003
14,CAPNS1 (UniProt U3KPR7),inactive: -0.069
